The values that follow come from the supplement of paper PMC5770031.

Some of the results follow. Single values are uncertain here, since repeats match poorly.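 Flies heterozygous for the ATM8 allele over a balancer chromosome carrying normal ATM were mated with each other on treated food. Parents laid eggs for 5–6 days and the young then developed for about 12 days, so both parents and larvae ate the compound. The read-out is the share of all emerged adults that carry two ATM8 copies, compared with 2% DMSO control vials. The paper called compounds neutral at 10–20% such offspring, harmful below 10%, and helpful above 20%.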

This experiment deals with Drosophila melanogaster ATM8 (temperature-sensitive ATM allele). The experiment can be described thus: fraction of eclosed F1 progeny that are homozygous ATM8 (rescue of developmental lethality); higher = more rescue of ATM8 developmental lethality; extreme values may be limits of the assay. To be noted: compound concentration applied to food 0.2 mM; 21 °C.
Regarding `Clc1ccccc1C(c1ccccc1)(c1ccccc1)n1ccnc1`, the “fraction of eclosed F1 progeny that are homozygous ATM8” value (shortened to “fraction”) was determined as 0.0345.

As for `NC(=O)NO`, the “fraction” value was 0.179.

On to `Clc1ccc(COC(Cn2ccnc2)c2ccc(Cl)cc2Cl)cc1` (configuration not stated), for which the “fraction” value was 0.147.

For the compound `C[C@H](CCC(=O)NCC(=O)O)[C@H]1CC[C@H]2[C@@H]3[C@H](O)C[C@@H]4C[C@H](O)CC[C@]4(C)[C@H]3C[C@H](O)[C@]12C`, the “fraction” value was 0.061.

Turning to `Oc1cc(O)c2c(c1)O[C@H](c1cc(O)c(O)c(O)c1)[C@H](O)[C@H]2c1c(O)cc(O)c2c1O[C@H](c1cc(O)c(O)c(O)c1)[C@H](O)[C@H]2c1c(O)cc(O)c2c1O[C@H](c1cc(O)c(O)c(O)c1)[C@H](O)C2`, the “fraction” value is 0.0645.

Regarding `CC[C@]1(O)C[C@@H]2CN(CCc3c([nH]c4ccccc34)[C@@](C(=O)OC)(c3cc4c(cc3OC)N(C)[C@H]3[C@@](O)(C(=O)OC)[C@H](OC(C)=O)[C@]5(CC)C=CCN6CC[C@]43[C@@H]65)C2)C1`, the “fraction” value was found to be 0.261.

For the compound `CC(CCc1ccc(O)cc1)NCC(O)c1ccc(O)cc1` (configuration not stated), the “fraction” value was found to be 0.0345.

As for `CC(=O)[C@H]1CC[C@H]2[C@@H]3CC=C4C[C@@H](OC(=O)CCC(=O)O)CC[C@]4(C)[C@H]3CC[C@]12C`, the “fraction” value is 0.0345.

For `CCCCC(CC)COC(=O)c1ccccc1O` (configuration not stated), the “fraction” value was 0.0741.

`C=C1CC=C(C)CC[C@@H]2[C@@H]1CC2(C)C`: the “fraction” value turned out to be 0.167.

With `CCN(CCCc1ccccc1)CCCc1ccccc1`, the “fraction” value came to 0.0606.

In the case of `COc1ccc(-n2nc(CCC(=O)N(C)O)cc2-c2ccc(Cl)cc2)cc1`, the “fraction” value was found to be 0.321.

As to `O=P(O)(O)C(O)(Cc1cccnc1)P(=O)(O)O`, the “fraction” value is 0.157.

Consider `O=C(O)c1cc(O)c(O)c(O)c1`, for which the “fraction” value was 0.163.

As for `CCN(CC)C(=O)N1CCN(C)CC1`, the “fraction” value turned out to be 0.0238.

For the compound `Cc1[nH]c2ccccc2c1CN(C)C`, the “fraction” value was 0.255.

As to `CN(C)CCC(c1ccccc1)c1ccccn1` (configuration not stated), the “fraction” value came to 0.192.

With `C=CC(C1=CC(=O)C(OC)=CC1=O)c1ccc(O)cc1` (configuration not stated), the “fraction” value came to 0.222.

As to `Nc1ccn([C@@H]2O[C@H](CO)[C@@H](O)[C@H]2O)c(=O)n1`, the “fraction” value worked out at 0.0645.

Regarding `O=C(O)/C=C/C=C/c1ccc2c(c1)OCO2`, the “fraction” value was found to be 0.312.

Consider `CC(C)CCC[C@@H](C)[C@H]1CC[C@H]2[C@@H]3CC=C4C[C@@H](O)CC[C@]4(C)[C@H]3CC[C@]12C`, for which the “fraction” value was found to be 0.25.

For the compound `O=C(/C=C/c1ccc(O)cc1)c1ccccc1`, the “fraction” value turned out to be 0.184.

`Cc1nccc2c1[nH]c1cc(O)ccc12`: the “fraction” value came to 0.186.

For the compound `CC(=O)c1ccc2c(c1)N(CCCN1CCN(CCO)CC1)c1ccccc1S2`, the “fraction” value is 0.3.

For the compound `O=C(O)c1cc(=O)c2c(OCC(O)COc3cccc4oc(C(=O)O)cc(=O)c34)cccc2o1`, the “fraction” value turned out to be 0.

Take `O=c1c(O)c(-c2ccccc2)oc2cc(O)cc(O)c12`: the “fraction” value was 0.0682.

For `COc1ccc(-c2coc3cc(O)cc(OC)c3c2=O)cc1`, the “fraction” value is 0.0408.
